This note sets out measurements from patent publication US20150329825A1, “COMPOSITIONS AND METHODS EMPLOYING STEM CELL-DERIVED CARDIOMYOCYTES” (THE REGENTS OF THE UNIVERSITY OF MICHIGAN, priority 2014, published 2015).

The subject of the experiment is hiPSC-CM monolayers. Briefly: 96 well optical mapping of intracellular calcium flux in hiPSC-CM monolayers under IKr blockade. The class given is cell-based, human. The following applies: 100 nmol L^-1 E4031. As to the method:
Briefly, monolayers were loaded with the intracellular Ca^2+ indicator, rhod-2AM (10 μmol L-1, Life Technologies). After a 30 minute incubation time, the cells were washed in Hanks balanced salt solution (HBSS, Life Technologies) for an additional 30 minutes before optical mapping recordings. […] Movies were filtered in both the time and space domain and conduction velocity (CV) was measured as described previously (Hou L, et al., Circulation Research. 2010;107:1503-1511, herein incorporated by reference in its entirety).
To further investigate whether PDMS+matrigel promotes the expression of other potassium currents, the effects of E4031 (100 nmol L^−1), a selective blocker of the rapid component of the delayed rectifier potassium current (IKr) on the spontaneous beating rate and calcium transient duration (CaTD80) of hiPSC-CM monolayers cultured on matrigel coated PDMS was compared to those cultured on standard rigid, plastic bottom 96 well dishes (also matrigel coated, FIG. 11 illustrates how this multi-well optical mapping platform was used). Small glass coverslips to fit into a 96 well format dish are not readily available so here plastic was used as the rigid comparator for PDMS. […] This effect on beating frequency is due to the effect of E4031 to prolong the action potential and calcium transient durations.
For orientation: Calcium flux is commonly read through the fluorescence of an indicator in the cells.

With `Cc1cccc(CCN2CCC(C(=O)c3ccc(NS(C)(=O)=O)cc3)CC2)n1` [E4031], the “fold increase of calcium transient duration (CaTD80)” value is given as around 1.34 × (PDMS bottom dishes, n=5) and around 3 × (plastic bottom dishes, n=8). The “spontaneous beating frequency post E4031” value by setting is: (monolayers on matrigel coated PDMS, n=5, pre 1.02±0.04 Hz) 0.78±0.07 Hz; (monolayers on rigid plastic (matrigel coated), n=8, pre 0.83±0.02 Hz) 0.45±0.05 Hz.
